Measurements reported in PubChem BioAssay AID686937 (Drosophila RNAi Screening Center, 2013)
In all, the deposit lists about 23,000 reagents; this is a random part of those with a known target gene and a result. 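Reduced-secretion tags in replicate 1 do not always agree with the z-scores; no criterion for assigning the tags was given.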 Names joined by + are all predicted targets of the reagent. Further read-outs or replicates are left out here. No sequences are given here. Not stated in the record: the amount of reagent.

Test: 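Knock-downs that reduce output of a secreted reporter enzyme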 (primary screen)
Cell system: Drosophila S2 cells expressing secreted horseradish peroxidase
Reagents: long dsRNA against Drosophila genes
Timing: about 5.5 days (5 days dsRNA, then 12 h reporter induction)
Challenge: reporter expression induced after 5 days of dsRNA, read 12 h later; inducer not stated
Detection: 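Chemiluminescent measurement of peroxidase in the medium 12 h after reporter induction, following 5 days of dsRNA, given as a z-score per plate; higher means more secretion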
Scale: z-score: higher = more reporter secreted into medium

CG6766 [DRSC02991] → z-score, replicate 1 = 0.24
Pdk1 (Phosphoinositide-dependent kinase 1) [DRSC08682] → z-score, replicate 1 = -1
PIG-H + Kmn2 [DRSC12653] → z-score, replicate 1 = -1.82
CG15260 [DRSC01977] → z-score, replicate 1 = 0.49
CG7829 [DRSC16322] → z-score, replicate 1 = 0.05
CG33342 (HDC15381) [DRSC13662] → z-score, replicate 1 = 0.51
MED4 (Mediator complex subunit 4) [DRSC11014] → z-score, replicate 1 = -5.5
CG14961 [DRSC08420] → z-score, replicate 1 = 0.16
E5 [DRSC13000] → z-score, replicate 1 = -1.32
E5 [DRSC16585] → z-score, replicate 1 = -1.82
CG17362 [DRSC10267] → z-score, replicate 1 = 0.05
Tpst (Tyrosylprotein sulfotransferase) [DRSC18989] → z-score, replicate 1 = 0.68
Tpst (Tyrosylprotein sulfotransferase) [DRSC19696] → z-score, replicate 1 = 0.28
Tpst (Tyrosylprotein sulfotransferase) [DRSC19723] → z-score, replicate 1 = -0.03
Tpst (Tyrosylprotein sulfotransferase) [DRSC19724] → z-score, replicate 1 = -1.8
Tpst (Tyrosylprotein sulfotransferase) [DRSC22621] → z-score, replicate 1 = 0.87
retm (real-time) [DRSC03252] → z-score, replicate 1 = 0.26
Sms (Spermine synthase) [DRSC10408] → z-score, replicate 1 = 0.22
CG9997 [DRSC16591] → z-score, replicate 1 = 0.24
CG13123 [DRSC02219] → z-score, replicate 1 = 0.57
Pgant4 (Polypeptide N-Acetylgalactosaminyltransferase 4) [DRSC00717] → z-score, replicate 1 = 0.22
Syx7 (Syntaxin 7) [DRSC11763] → z-score, replicate 1 = 0.33
Sqor (Sulfide quinone oxidoreductase) [DRSC08453] → z-score, replicate 1 = 0.68
arm (armadillo) [DRSC18738] → z-score, replicate 1 = 0.22
Exn (Ephexin) [DRSC09673] → z-score, replicate 1 = -0.16
Exn (Ephexin) [DRSC10077] → z-score, replicate 1 = 0.25
Drice (Death related ICE-like caspase) [DRSC16715] → z-score, replicate 1 = 0.23
lncRNA:CR41443 (long non-coding RNA:CR41443) [DRSC07733] → z-score, replicate 1 = 0.11
CG31937 [DRSC00514] → z-score, replicate 1 = 0.4
swi2 [DRSC06457] → z-score, replicate 1 = 0.35
Wdr81 (WD repeat domain 81) [DRSC02985] → z-score, replicate 1 = 0.66
CG7970 [DRSC08605] → z-score, replicate 1 = 0.03
CG14655 [DRSC12241] → z-score, replicate 1 = 0.95
CG5608 [DRSC15841] → z-score, replicate 1 = 0.13
CG14324 [DRSC14803] → z-score, replicate 1 = -0.3
CG9743 [DRSC16552] → z-score, replicate 1 = 0.17
ken (ken and barbie) [DRSC04696] → z-score, replicate 1 = -1.54
CG13893 [DRSC08363] → z-score, replicate 1 = 0.17
CG9356 [DRSC16476] → z-score, replicate 1 = 0.23
CG43367 + asRNA:CR32252 [DRSC21715] → z-score, replicate 1 = 0.07

Sorted by “z-score, replicate 1” (highest first): 2 of the entries above
Exn (Ephexin) [DRSC10077] → z-score, replicate 1 = 0.25
Drice (Death related ICE-like caspase) [DRSC16715] → z-score, replicate 1 = 0.23
